The results are deposited in PubChem (AID1159506; NCATS, 2015).

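Luminescence from an EWS-FLI1 target-promoter (NR0B1) reporter, set against a CMV-promoter reporter, two days after silencing single genes in TC32 Ewing sarcoma cells.
Each siRNA was applied at 20 nM.
A z-score of the log NR0B1-over-CMV signal, less the median of siRNAs with the same seed; more negative means a stronger specific loss of the NR0B1 reporter.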

This is part of the screen; most of the strongest results are not listed here.
Sequences are the guide (antisense) strand, without overhang.

Sequence,gene,seed-corrected z-score
AAAGUUCUUAGAGGGCUUC,FAM166A,0.1622
UCCACGACUAAAGCAUUCC,EHD4,-0.5752
AUUAAGAAUCGAGAACUGG,ZNF92,0.1235
ACAAUGUUCAUUCCCAGGC,MS4A12,0.3607
AUCGAUAUUGGACUUGAUC,RALY,0.3218
UGAACAUUCAGCUCCAUUG,CTHRC1,0.1176
AACGGUAAUAUCUUAUGCC,ABCA13,-0.813
UUCUAGUCCACCAAUUCUG,ANO4,-0.2753
ACAGUAGGCAUGGAUAAGG,KLHL33,-0.06015
UUACCCAAUAAUGUGGUGC,FAM118A,0.9571
UUAGGGUGAUUCGAAUUCG,RPS20,2.023
UUAAUUCUUCGAUUCCUUC,GTPBP10,0.8709
UUCAUUCUCAUAGUAGAGC,CRHR2,0.2768
AAAUUGUCCAUCGCACUCC,LCT,-0.3128
UCUCGUUCAUUAGCAUACC,FILIP1L,-0.124
UUCCUAAAUUGUGAUAUGC,LAYN,0.6739
UCAGGCGCAAGCAAUUUGC,XIRP2,-0.2105
UUUGUCUAAAUACUCCUGC,PLEKHD1,0.3693
AAAGCGAAACACCUCCUCC,CPOX,0.8443
AUCUUGUUGACAUAGAUGC,POLR2I,-1.221
UACUGUUGCUCAUUAGAGC,POU2F1,-1.53
AAUGAGGUAAGUUUUAACC,PIP,-1.132
UUAGCGGCCACUACGCAAA,LRRN4CL,-0.2201
UUCUUUCUUGAUUCUGAGC,ARPP21,0.3545
UUCCUGCACACCACCGUCU,RHOT2,0.3904
UCAGUAUCAAGGGAUACGG,PLA2G4A,0.4616
UUUCGUCGAGGCUUGGGUC,NORAD,0.08226
UCUCUUCAUAGGCUCUCUC,C11orf42,1.476
UUAGGUUCAAUGUUUGGGC,NUDT10,0.3495
UUAAUGUCCAGGGCACAAG,GLG1,-1.282
AAAGCCGUAAGUACUAGUC,RBM15,0.5863
UUUCCUAUGAUUAGUAAGG,ZNF254,0.2959
UAUCCGACAAAGGUCUUUG,ATP6V1A,-0.402
UUCUUUCCCACGAUGCACC,RNF121,-0.9972
UUUCCUGUAAUGAUAAAGC,DYDC2,0.8041
CUAGAUUACCAUGUAAGAC,ANKRD36,-0.2173
UUCAUGUACACCUGAAGCC,ARMCX2,1.416
UUUCAGUUUAUCAAGGCCG,SNAPC3,-1.475
UGUUUCUUUGGUGCAGUUC,AKTIP,0.3749
UUAAGGUUAGGGCAGUUUG,SLFN12,-0.1078
UUCGGUAACUGAUUUAGUC,MED17,0.8099
UUCGUACAGACACCCAAAC,NEU2,-0.2666
AUCAAUUCUGUCAAUGUAC,UBTF,0.02125
UUGAGAUACAGUGAUGGUG,C7orf34,-0.001301
AUAUGGAUAUCACCUACCC,ZBTB5,0.8672
UUCAUUGGAACACCCUGUC,SUMO1,-0.3757
UUAUCACCCAGCGGUCAGC,TMPRSS6,0.3918
ACAGGUACUAGGAUAACAG,TMEM114,-0.3178
AGACAUUGCAGUAAUAUCC,ZMAT2,0.7757
AACUUGACCAGGCCUAGGG,PHLDA3,0.03013
UCUCGAAAUAGUUGAUUCC,EZR,-0.04571
UGCUAUUGCACAGACCUGC,ABCA9,0.2424
UAAGAACUGGGCCUUAUCC,IQCD,-0.5134
AUGAGGACCACGUUGUUGG,MRPL14,0.3261
UUAUCCGUAAGAAUUCGAC,FAM47B,0.8386
UUAGUAACUGUCCACAUUC,PHF6,0.1565
UUUCGAGUCUCCUAAACAC,RIF1,0.3506
UCUAGGAAAUGGUCUAUGG,C14orf79,0.04065
UGUCGAUUAAAGCUUUUCC,ZSCAN9,-0.424
UUGGUGGUGAGGUCGCUCU,RAB1B,-0.3105
AAAUAGAACAAUCAAUAGG,BCAP29,1.055
UGAUGGACAACCUUUCGUG,TIFAB,-0.2733
UCAGUUUCGGGAGCACUGG,KRTAP5-5,0.752
UGAAUCACCAAUGACCGGG,DHTKD1,0.6851
UUAGACUUACUCGAAAUAC,TTPA,-0.7734
UCACGCACAAGUGGCAGCA,HS6ST1P1,-0.4171
UACUGGGUUGUGAAGUUGC,LOC150519,0.6249
UUCUUGCCUGUAGUCAUCC,GPA33,-0.4233
UUCGUUCUCCUCAUCGUUC,PPWD1,0.2741
AAACGGUGAUCUUACAUCC,ASMT,0.1122
UCCAGUAAUAACUUCACGG,INVS,-1.592
UAUGUAGGAUCCAAUGUUG,CDK7,-1.264
UUUUUAGCAACUGAUGAUG,CDKN2AIP,0.1414

Once more, the final 5:

| Sequence | gene | seed-corrected z-score |
|---|---|---|
| `UUCGUUCUCCUCAUCGUUC` | PPWD1 | 0.2741 |
| `AAACGGUGAUCUUACAUCC` | ASMT | 0.1122 |
| `UCCAGUAAUAACUUCACGG` | INVS | -1.592 |
| `UAUGUAGGAUCCAAUGUUG` | CDK7 | -1.264 |
| `UUUUUAGCAACUGAUGAUG` | CDKN2AIP | 0.1414 |